Measured values from US8999935B2, “Treatment of osteoporosis in peri- and post-menopausal women with hepcidin” (New York University, priority 2009, dated 2015).
For at least one compound, name, drawing or mass did not settle the structure.

System: mouse osteoblast C2C12 cells
Assay: Alkaline phosphatase (osteoblast differentiation) in C2C12 cells
Type: cell-based
Settings: C2C12 cells with BMP-2 at 50 ng/ml; DFO 10 μM, ferritin 20 ng/mL
Protocol: FIGS. 18A-F show differences in alkaline phosphates (ALP) activities in mouse osteoblast C2C12 cells grown in medium only (FIG. 18A), with bone morphorgenetic protein-2 (BMP-2) (FIG. 18B), under the pre-menopausal (FIG. 18C), post-menopausal (FIG. 18D), with ferritin (FIG. 18E), and with deferoxamine (DFO) (FIG. 18F). DFO, an iron chelator, (10 μM) or ferritin alone (20 ng/mL) was used in the presence of BMP-2 at 50 ng/ml.
Due to the deficit of appropriate animal models that recapitulate estrogen and iron conditions in vivo, and the inherent difficulty of eliminating confounding variables with study in human subjects, applicants developed two cell culture models to test whether increase in body iron contributes to menopausal symptoms and diseases (FIG. 4). The concentration of 17β-estradiol (E2) were set at levels equivalent to breast tissue levels under pre-menopausal conditions (Parl F. F., “Estrogens, Estrogen Receptor and Breast Cancer,” Oxford: IOS Press, (2000), which is hereby incorporated by reference in its entirety). Ferritin levels were equal to 10% serum, given that the physiological upper limit of serum ferritin is 200 ng/ml. […]
To investigate whether increased iron levels affect the balance between bone formation and bone resorption, mouse osteoblasts C2C12 and osteoclasts Raw 264.7 cells were cultured in the two distinct media. […] Cell proliferation was then measured.

## CC(=O)N(O)CCCCCNC(=O)CCC(=O)N(O)CCCCCNC(=O)CCC(=O)N(O)CCCCCN [deferoxamine]
  alkaline phosphatase production: promoted
